Test results published in PubChem BioAssay AID1487 (National Center for Advancing Translational Sciences (NCATS), 2009).
The other results are listed elsewhere or left out. The main result of the screen is listed elsewhere. These columns were measured beside it and carry no call. Compounds called inactive in the main read-out are mostly missing here. The note in brackets gives the kind of curve behind each potency; many fits are weak.

Assay: qHTS Assay for Modulators of Lamin A Splicing
Details: HeLa LMNA splicing GFP/RFP minigene ratio, 48 h
Method in brief: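 S3 HeLa stable clones carrying a lamin A-EGFP splicing minigene plus DsRed2 were seeded at 600 cells/well in Opti-MEM with 2% FBS, pin-dosed and incubated 48 h at 37°C. Acumen cytometry (488 nm) gave the GFP/RFP total-intensity ratio.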

[1] = measured here: RFP viability control channel
[2] = measured here: GFP splicing reporter channel

| Structure (SMILES) | AC50 [1] | AC50 [2] |
| --- | --- | --- |
| Cc1ccc(C(=O)c2ccccc2C(=O)OCC(=O)NC(C)(C)C)cc1 | 35.5 µM [rising, partial curve, poor fit] | – |
| NC(=NCc1ccc(Cl)c(Cl)c1)NC(=O)c1nc(Cl)c(N)nc1N | 8.91 µM [falling, partial curve, poor fit] | 15.8 µM [falling, partial curve] |
| C/C(CC(=O)NCc1ccco1)=N\NC(=O)COc1ccc(Cl)cc1Cl | 0.0251 µM [falling, full curve, poor fit] | 0.0794 µM [falling, full curve, poor fit] |
| CC(=O)/C=C/n1c(=S)oc2ccccc21 | 6.31 µM [falling, single point] | 5.62 µM [falling, single point] |
| O=C(NC1CCCc2ccccc21)c1cccc(S(=O)(=O)N2CCN(c3ccccc3)CC2)c1 (stereo not given) | 11.2 µM [rising, single point] | – |
| Fc1ccc(N2CCN(Cc3cnc(N4CCOCC4)s3)CC2)cc1 | 6.31 µM [falling, partial curve, poor fit] | – |
| CCCCS(=O)(=O)/C=C\C1C2C=CC(C2)C1S(=O)(=O)CCCC (stereo not given) | 0.00708 µM [falling, full curve] | – |
| O=[N+]([O-])c1cc(C(F)(F)F)cc([N+](=O)[O-])c1NCCCNc1ccc([N+](=O)[O-])c2cccnc12 | 0.1 µM [rising, full curve, poor fit] | 3.98 µM [rising, partial curve] |
| Cc1ccc(NC(=O)C(=O)NCCN2CCN(S(=O)(=O)c3ccccc3)CC2)cc1C | – | 3.16 µM [falling, full curve, poor fit] |
| COc1cc(/C=C/CN2CCN(CCC(C)C)C(CCO)C2)ccc1O (stereo not given) | – | 0.00316 µM [rising, full curve, poor fit] |
| CNC(=O)c1c(NC(=O)/C=C/c2ccccc2Cl)sc2c1CCC2 | 0.0224 µM [rising, full curve, poor fit] | 0.0398 µM [rising, full curve, poor fit] |
| CC(C)N1CCN(CC#Cc2ccccc2)CC1CCO (stereo not given) | – | 0.1 µM [falling, full curve, poor fit] |
| O=C(O)[C@H](O)[C@@H](O)[C@H](O)[C@H](O)CO | 0.2 µM [rising, full curve, poor fit] | – |
| CCN(CC)c1ccc(/C=N/NC(=O)c2ccco2)cc1 | 5.62 µM [rising, full curve] | 10 µM [rising, partial curve, poor fit] |
| CCCNC(=O)c1ccccc1NC(=O)c1ccccc1N(C)S(=O)(=O)c1ccccc1 | 15.8 µM [rising, single point] | – |
| COc1cc(/C=N/n2nnnc2Nc2ccccc2)cc(OC)c1OC | 14.1 µM [rising, single point] | – |
| C=CCSc1nc2ccccc2n1C(=O)/C=C/c1ccc(OC)c(OC)c1 | 3.98 µM [falling, full curve] | 5.62 µM [falling, full curve] |
| CCCS(=O)(=O)N1CCN(C(=O)c2ccc(-c3ccccc3)cc2)CC1 | 25.1 µM [rising, single point] | – |
| Fc1cc(Br)ccc1NC(=S)Nc1cccnc1 | – | 0.708 µM [falling, partial curve, poor fit] |
| O=C(CCC(=O)OCC(F)(F)C(F)F)NCc1ccccc1 | 3.55 µM [rising, single point] | – |
| O=C1CC(=C(c2ccccc2)c2ccccc2)C(=O)N1CCCN1CCN(c2cccc(Cl)c2)CC1 | 11.2 µM [rising, partial curve, poor fit] | 10 µM [rising, partial curve, poor fit] |
| COc1ccc(CCNC(=O)c2ccc(CNS(=O)(=O)c3cc(C)ccc3C)cc2)cc1OC | 14.1 µM [rising, single point] | – |
| O=C(NCc1ccccn1)C1CC(c2ccccc2Cl)=NO1 (stereo not given) | 1.12 µM [falling, full curve, poor fit] | – |
| COc1ccc(NS(=O)(=O)c2cc(OCC(N)=O)c(C)cc2Cl)cc1 | 10 µM [rising, single point] | – |
| Cc1ccc(Cl)cc1NC(=O)C(=O)NCC(c1cccnc1)N1CCc2ccccc21 (stereo not given) | 20 µM [rising, single point] | – |
| COc1ccc(-c2csc(NC(=O)COc3ccc(N(C)S(=O)(=O)c4ccc(C)cc4)cc3)n2)cc1 | 10 µM [rising, partial curve] | 11.2 µM [rising, partial curve] |
| O=c1c2ccccc2nc2c3ccccc3c(NCCN3CCOCC3)nn12 | 35.5 µM [falling, single point] | 35.5 µM [falling, single point] |

| Structure (SMILES) | AC50 [1] | AC50 [2] |
| --- | --- | --- |
| CCCC(=O)Nc1ccc(Br)c(Cl)c1 | 14.1 µM [rising, single point] | – |
| CCC(c1nnnn1Cc1ccco1)N(CCc1ccccc1)Cc1cc2cc(C)ccc2[nH]c1=O (stereo not given) | 12.6 µM [rising, partial curve] | 11.2 µM [rising, partial curve] |
| CSc1ccc(CN(C)CC(=O)Nc2c(F)cccc2F)cc1 | – | 0.501 µM [rising, full curve, poor fit] |
| O=C(Nc1ccn(-c2ccccc2)n1)c1ccc(Cl)cc1 | 15.8 µM [rising, partial curve] | 2 µM [rising, single point] |
| COc1ccc(S(=O)(=O)NCCc2c(C)nn(C)c2Oc2ccccc2)cc1 | 5.62 µM [rising, partial curve, poor fit] | – |
| Nc1ccc(O)c(C(=O)O)c1 | – | 0.0631 µM [falling, full curve, poor fit] |
| Cc1ccc(C(=O)COC(=O)CNC(=O)c2cccs2)cc1C | – | 5.62 µM [rising, single point] |
| CCCN(C(=O)Cc1nc(N)n[nH]1)C1(C(=O)Nc2ccccc2C)CCCCC1 | 2.51 µM [falling, partial curve] | 3.16 µM [falling, partial curve, poor fit] |
| Cc1ccc2oc3c(c(=O)c2c1)C(c1cccc(O)c1)N(c1ccccn1)C3=O (stereo not given) | 2.24 µM [rising, full curve, poor fit] | – |
| COc1ccc(N2C(=O)CC(N(CCc3ccccc3)C(=O)/C=C/C(=O)O)C2=O)cc1 (stereo not given) | 20 µM [falling, partial curve, poor fit] | – |
| COCCNC(=O)C1CCC(Cn2c(=S)[nH]c3ccccc3c2=O)CC1 (stereo not given) | 2 µM [rising, partial curve] | – |
| Cc1ccc(C(=O)/C=C/c2cn(CN3CCN(C)CC3)c3ccccc23)cc1 | 35.5 µM [rising, single point] | – |
| Cc1ccc(Cn2nnc3c(=O)[nH]c(C4CCN(S(=O)(=O)c5cc(C)ccc5C)CC4)nc32)cc1 | 11.2 µM [falling, partial curve] | 35.5 µM [falling, single point] |
| CC(Nc1cccc2ccccc12)C(=O)N/N=C/c1ccc([N+](=O)[O-])cc1 (stereo not given) | 35.5 µM [rising, partial curve] | – |
| O=C(CSc1nnc(-c2ccc(OC(F)F)cc2)o1)N1CCOCC1 | 0.0794 µM [rising, full curve, poor fit] | 1 µM [rising, partial curve, poor fit] |
| Cc1nn(C)c(C(=O)N/N=C/c2ccc(C(F)(F)F)cc2)c1[N+](=O)[O-] | – | 12.6 µM [rising, partial curve] |
| CCc1c(C)nc2ncnn2c1NCCc1ccc(Cl)cc1 | 0.501 µM [falling, partial curve, poor fit] | – |
| CCOC(=O)CSc1nc2cccnc2n1C | 0.00316 µM [falling, full curve, poor fit] | 0.00398 µM [falling, full curve, poor fit] |
| CN(C(=O)COC(=O)c1cc(NS(=O)(=O)c2cc([N+](=O)[O-])ccc2Cl)ccc1O)C1CCCCC1 | 35.5 µM [rising, single point] | – |
| c1ccc2c(c1)CSc1sccc1C2=C1CCNCC1 | 17.8 µM [rising, single point] | 17.8 µM [rising, single point] |
| Clc1ccccc1CNc1ncnc2c1c(-c1ccccc1)cn2-c1ccccc1 | 35.5 µM [rising, single point] | – |
| CCOc1ccc(/C=N/OC(C)C(=O)NCc2ccc3c(c2)OCO3)cc1 (stereo not given) | 17.8 µM [rising, partial curve] | 6.31 µM [rising, partial curve] |
| CCN(CC)CCOC(=O)C1(c2ccc([N+](=O)[O-])cc2)CCCC1 | 0.0282 µM [rising, full curve, poor fit] | – |
| O=C(O)c1cn(C2CC2)c2cc(N3CCN(S(=O)(=O)c4ccc5c(c4)OCCO5)CC3)c(F)cc2c1=O | 17.8 µM [rising, single point] | 35.5 µM [rising, single point] |
| O=C(c1cccs1)N1CCN(Cc2ccc3c(c2)OCO3)CC1 | 17.8 µM [rising, single point] | 11.2 µM [rising, single point] |
| CCOC(=O)c1c(NC(=O)c2cccs2)sc(CC)c1-c1cccs1 | 35.5 µM [rising, single point] | 31.6 µM [rising, single point] |
| CCSc1nc(CC)c2c(c1C#N)CCCC2 | – | 35.5 µM [rising, single point] |

One compound at a time, as listed above:
CCCC(=O)Nc1ccc(Br)c(Cl)c1 in the list: AC50 [1]: 14.1 µM [rising, single point]
O=C(Nc1ccn(-c2ccccc2)n1)c1ccc(Cl)cc1 in the list: AC50 [1]: 15.8 µM [rising, partial curve]; AC50 [2]: 2 µM [rising, single point]
CCc1c(C)nc2ncnn2c1NCCc1ccc(Cl)cc1 in the list: AC50 [1]: 0.501 µM [falling, partial curve, poor fit]
Clc1ccccc1CNc1ncnc2c1c(-c1ccccc1)cn2-c1ccccc1 in the list: AC50 [1]: 35.5 µM [rising, single point]

Laid out differently: entries from further up.
Structure (SMILES)	AC50 [1]	AC50 [2]
CCN(CC)CCOC(=O)C1(c2ccc([N+](=O)[O-])cc2)CCCC1	0.0282 µM [rising, full curve, poor fit]	–
O=C(O)c1cn(C2CC2)c2cc(N3CCN(S(=O)(=O)c4ccc5c(c4)OCCO5)CC3)c(F)cc2c1=O	17.8 µM [rising, single point]	35.5 µM [rising, single point]
